Experimental data reported in PubChem BioAssay AID248 (DTP/NCI, 2004).
The list is a part of this screen's results and no random one: it gathers tests that were run many times, whatever their T/C, doses with no T/C, and many T/C values between a quarter and a half above the control. Further doses and runs are listed elsewhere. T/C: endpoint of the treated group in % of that of the vehicle group. Some doses have a count of surviving animals in place of a T/C: the source files T/C as zero there, which appears to mark a toxic dose or a test without result, not a measured value. Some doses without a T/C left all or most animals alive at the check, yet need not have been tolerated: survival well below the control is almost never listed, so the zero probably covers shortened survival too. Survivors were counted at the toxicity check, usually on the fifth day, unless a day is given; later deaths do not show. Schedule codes are those of the source, taken here to give the interval after Q, in days (D) or hours (H), and the number of doses after X. Some schedules carry Z or #; the key to these is not given. For survival time, the PubChem record calls one and a half times the control and up active, and a quarter to a half above the control has no call in these data; cut-offs in other NCI protocols can differ.

System: L1210 leukemia ip in BDF1 mice, survival T/C
Assay: NCI In Vivo Anticancer Drug Screen. Data for tumor model L1210 Leukemia (intraperitoneal) in B6D2F1 (BDF1) mice
Settings: T/C endpoint: mean survival time, higher T/C = longer survival
[1] = dose: 100.0 mg/kg/injection, schedule: Q01DX009 (ip), vehicle: saline with Tween-80
[2] = dose: 400.0 mg/kg/injection, schedule: Q04DX003 (ip), vehicle: saline
[3] = dose: 150.0 mg/kg/injection, schedule: Q01DX001 (ip), vehicle: saline
[4] = dose: 300.0 mg/kg/injection, schedule: Q01DX001 (ip), vehicle: saline

O=NN(CCF)C(=O)NCCF
T/C (dose: 4.0 mg/kg/injection, schedule: Q01DX001 (ip), vehicle: saline): 147 % of control | survivor count (dose: 14.0 mg/kg/injection, schedule: Q01DX001 (ip), vehicle: saline): 4 of 10 | survivor count (dose: 18.0 mg/kg/injection, schedule: Q01DX001 (ip), vehicle: saline): 2 of 6 | survivor count (dose: 26.0 mg/kg/injection, schedule: Q01DX001 (ip), vehicle: saline): 2 of 6 | survivor count (dose: 28.0 mg/kg/injection, schedule: Q01DX001 (ip), vehicle: saline): 0 of 10 | survivor count (dose: 40.0 mg/kg/injection, schedule: Q01DX001 (ip), vehicle: saline): 0 of 6 | survivor count (dose: 60.0 mg/kg/injection, schedule: Q01DX001 (ip), vehicle: saline): 0 of 6 | survivor count (dose: 90.0 mg/kg/injection, schedule: Q01DX001 (ip), vehicle: saline): 0 of 6 | survivor count (dose: 133.0 mg/kg/injection, schedule: Q01DX001 (ip), vehicle: saline): 0 of 6 | survivor count (dose: 200.0 mg/kg/injection, schedule: Q01DX001 (ip), vehicle: saline): 0 of 6

CC(N=C=S)c1ccccc1 (stereo not drawn)
survivor count [1]: 6 of 6 | survivor count (dose: 200.0 mg/kg/injection, schedule: Q01DX009 (ip), vehicle: saline with Tween-80): 1 of 6 | survivor count (dose: 400.0 mg/kg/injection, schedule: Q01DX009 (ip), vehicle: saline with Tween-80): 0 of 6

O=NN(CCCl)C(=O)Nc1ccccc1NC(=O)N(CCCl)N=O
T/C (dose: 6.0 mg/kg/injection, schedule: Q01DX001 (ip), vehicle: carboxymethylcellulose (CMC)): 130 % of control | T/C (dose: 8.0 mg/kg/injection, schedule: Q01DX001 (ip), vehicle: carboxymethylcellulose (CMC)): 130 % of control | T/C (dose: 10.0 mg/kg/injection, schedule: Q01DX001 (ip), vehicle: carboxymethylcellulose (CMC)): 139 % of control | T/C (dose: 12.5 mg/kg/injection, schedule: Q01DX001 (ip), vehicle: carboxymethylcellulose (CMC)): 130 % of control | T/C (dose: 15.0 mg/kg/injection, schedule: Q01DX001 (ip), vehicle: carboxymethylcellulose (CMC)): 137 % of control

CC(=O)OC1(c2ccc(Cl)cc2)OC(=O)C(c2ccccc2)=C1Cc1ccccc1 (stereo not drawn)
survivor count (dose: 50.0 mg/kg/injection, schedule: Q01DX009 (ip), vehicle: saline with Tween-80): 3 of 3 | survivor count [1]: 3 of 3

Cc1ccc(C(=O)CCN2CCOCC2)cc1C
survivor count [2]: 3 of 6

CN(C)CCSC1=CC(=O)c2ccccc2C1=O
survivor count (dose: 3.12 mg/kg/injection, schedule: Q01DX009 (ip), vehicle: water): 3 of 6 | survivor count (dose: 6.25 mg/kg/injection, schedule: Q01DX009 (ip), vehicle: water): 1 of 6 | survivor count (dose: 12.5 mg/kg/injection, schedule: Q01DX009 (ip), vehicle: water): 0 of 6 | survivor count (dose: 25.0 mg/kg/injection, schedule: Q01DX009 (ip), vehicle: water): 0 of 6 | survivor count (dose: 50.0 mg/kg/injection, schedule: Q01DX009 (ip), vehicle: water): 0 of 6 | survivor count (dose: 100.0 mg/kg/injection, schedule: Q01DX009 (ip), vehicle: water): 0 of 6 | survivor count (dose: 200.0 mg/kg/injection, schedule: Q01DX009 (ip), vehicle: water): 0 of 6 | survivor count (dose: 400.0 mg/kg/injection, schedule: Q01DX009 (ip), vehicle: water): 0 of 6

COc1ccc(-c2cc3c(OC)ccc(OC)c3[nH]2)cc1OC
survivor count (dose: 100.0 mg/kg/injection, schedule: Q04DX002 (ip), vehicle: Klucel (hydroxypropylcellulose) (HPC)): 3 of 3

CC(=O)OC1C(CO)OC(n2ccc3c(N)ncnc32)C1O (stereo not drawn)
survivor count (dose: 75.0 mg/kg/injection, schedule: Q01DX001 (ip), vehicle: saline): 5 of 6 | survivor count [3]: 1 of 6 | survivor count [4]: 0 of 6

CC(C)=CCN(CC=C(C)C)CCC(C#N)(c1ccc2ccccc2c1)C(C)C (stereo not drawn)
survivor count (dose: 200.0 mg/kg/injection, schedule: Q01DX009 (ip), vehicle: Klucel (hydroxypropylcellulose) (HPC)): 6 of 6 | survivor count (dose: 400.0 mg/kg/injection, schedule: Q04DX003 (ip), vehicle: Klucel (hydroxypropylcellulose) (HPC)): 6 of 6

CC(=O)[OH2+].CC(=O)[OH2+].[O-]c1ccc2ccccc2c1CN1CCCCC1.[O-]c1ccc2ccccc2c1CN1CCCCC1.[O]=[U+2]=[O].[O]=[U+2]=[O]
survivor count (dose: 20.0 mg/kg/injection, schedule: Q01DX001 (ip), vehicle: other): 1 of 4 | survivor count (dose: 40.0 mg/kg/injection, schedule: Q01DX001 (ip), vehicle: other): 1 of 4 | survivor count (dose: 80.0 mg/kg/injection, schedule: Q01DX001 (ip), vehicle: other): 0 of 4

O=C1OCC/C1=C\CCCCCCCCC1CO1 (stereo not drawn)
survivor count (dose: 200.0 mg/kg/injection, schedule: Q04DX002 (ip), vehicle: saline): 2 of 3 | survivor count (dose: 400.0 mg/kg/injection, schedule: Q04DX002 (ip), vehicle: saline): 0 of 3

CCC(C)C(C1=C(O)c2ccccc2C(=O)C1=O)C1=C(O)c2ccccc2C(=O)C1=O (stereo not drawn)
survivor count (dose: 300.0 mg/kg/injection, schedule: Q01DX001 (ip), vehicle: carboxymethylcellulose (CMC)): 2 of 6

COc1cc(C=Nc2ccc3c(c2)ncn3C)ccc1N(CCCl)CCCl
survivor count (dose: 200.0 mg/kg/injection, schedule: Q04DX002 (ip), vehicle: Klucel (hydroxypropylcellulose) (HPC)): 3 of 3 | survivor count (dose: 400.0 mg/kg/injection, schedule: Q04DX002 (ip), vehicle: Klucel (hydroxypropylcellulose) (HPC)): 0 of 3

CC(=O)Oc1ccc2c(c1N=NN(C)C)CCC1C2CCC2(C)C(=O)CCC12 (stereo not drawn)
survivor count (dose: 400.0 mg/kg/injection, schedule: Q01DX001 (ip), vehicle: Klucel (hydroxypropylcellulose) (HPC)): 0 of 3

C=C1C(=O)OCC1C(=O)O (stereo not drawn)
survivor count [3]: 1 of 6 | survivor count [4]: 0 of 6

O=C(NCCCCCCCCCNC(=O)Nc1ccc(C2=NCCCN2)cc1)Nc1ccc(C2=NCCCN2)cc1
survivor count (dose: 30.0 mg/kg/injection, schedule: Q01DX Z (ip), vehicle: carboxymethylcellulose (CMC)): 6 of 6

Cc1cc(SCC(=O)c2ccc(Br)cc2)cc(C)[o+]1
survivor count [2]: 3 of 6
